We go through 37 molecules from PubChem BioAssay AID2685 (National Center for Advancing Translational Sciences (NCATS), 2010).

This test can be described thus: qHTS Assay for Lipid Storage Modulators in Drosophila S3 Cells.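 On cell number change: cells counted by Cell Tracker Red CMTPX staining in the red channel.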 Particulars: BODIPY lipid droplet fluorescence, 18-24 h; for cell number change: measured here: cell count max response, cells fed with added oleic acid. In short, it runs like this: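 Laser-scanning cytometry quantifies lipid droplet accumulation (500–530 nm total intensity; droplet/cell object ratio) in oleic acid-fed (400 uM added) Drosophila S3 cells treated with a concentration series. 20 uM Triacsin C defined 100% inhibition.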
For orientation: qHTS replaces the single test concentration by a dilution series.

[1] abbreviates: measured here: lipid fluorescence (Fed channel) AC50, cells fed with added oleic acid.
The mark [2] stands for this setting: measured here: cell number channel AC50, cells fed with added oleic acid.

This is one part of the list. Shown are side measurements of this screen, not its main read-out; they come without a call. Most of these compounds were active or inconclusive in the main read-out, so they are no random draw. Potencies come from curve fits of mixed quality, noted in brackets.

As a reminder, the AC50 is the midpoint of the concentration-response curve, whichever way the signal moves. In the case of `Cc1ccc(-n2ncc3c(=O)n(CC(=O)N4CCN(C(=O)c5ccco5)CC4)cnc32)cc1`, the cell number change was -5.84%. Also, under setting [1], the AC50 is 18.4 µM [rising, partial curve]. Take `CCCCCCCCCCOC(=O)Cn1c(COc2ccccc2OC)[n+](C)c2ccccc21`: the cell number change was -53.8%. Further, under setting [2], the AC50 is 2.06 µM [falling, full curve]. For the same molecule, the AC50 under setting [1] is 5.8 µM [falling, partial curve]. For `Cc1ccc(C(=O)N2CCCC2)c(F)c1F`, the cell number change came out at 12.9%. Regarding `Cc1ccc(S(=O)(=O)Nc2nc3c(s2)C(=O)CC(C)(C)C3)cc1`, the cell number change was 33.7%. Further, under setting [2], the half-maximal activity concentration (AC50) is 2.06 µM [rising, partial curve, poor fit]. Also, the AC50 under setting [1] was 32.6 µM [rising, single point]. For the molecule `Cc1cc(Cl)ccc1NC(=S)Nc1cccnc1`, the cell number change was -12.7%. The AC50 under setting [1] was 1.64 µM [falling, partial curve, poor fit]. Regarding `COc1cc2c(O)c3c(c(-c4ccc5c(c4)OCO5)c2cc1OC)C(=O)OC3`, the cell number change was -26.2%. Moreover, the AC50 under setting [1] was 9.2 µM [falling, partial curve, poor fit]. `COc1ccccc1N1CCN(C(=O)CCS(=O)(=O)c2ccc3c(c2)NC(=O)C(C)S3)CC1` (stereo not drawn): the cell number change came out at 4.59%. Also, the AC50 under setting [1] was 6.51 µM [rising, single point]. As to `O=C(Nc1cc(-c2nc3ncccc3o2)ccc1Cl)c1ccc([N+](=O)[O-])o1`, the cell number change was 15.2%. For the same molecule, under setting [1], the AC50 was 29.1 µM [falling, single point].

Take `CCOC(=O)c1cc(S(=O)(=O)N(C)Cc2ccccc2)cn1C`: the cell number change stood at 17.5%. In addition, the half-maximal activity concentration (AC50) under setting [1] is 16.4 µM [falling, partial curve, poor fit]. For the molecule `O=C(Nc1ccc(N2CCN(C(=O)c3cccs3)CC2)cc1)c1ccc(Br)o1`, the cell number change was 22.4%. The AC50 under setting [1] is 0.731 µM [rising, single point]. With `O=C(CCCN1C(=O)c2ccccc2C1=O)NC1=NCCS1`, the cell number change came out at 5.37%. In the case of `CCOc1ccccc1Nc1cc2n(c(=O)n1)CCc1cc(OC)c(OC)cc1-2`, the cell number change was -2.41%. In addition, under setting [1], the AC50 is 0.00651 µM [falling, full curve, poor fit]. Turning to `Cc1ccc(-n2c(COc3ccccc3)n[nH]c2=S)cc1`, the cell number change turned out to be 67.3%. Besides, the AC50 under setting [2] is 18.4 µM [rising, single point]. The AC50 under setting [1] is 20.6 µM [rising, single point].

Regarding `Cc1nc2ccc(NC(=O)c3cccs3)cc2s1`, the cell number change was -6.39%. The half-maximal activity concentration (AC50) under setting [1] is 0.224 µM [falling, full curve, poor fit]. As for `COc1ccccc1N1CCN(C(c2ccccc2Cl)c2nnnn2C(C)(C)C)CC1` (stereo not drawn), the cell number change was -56.7%. Besides, the AC50 under setting [2] is 29.1 µM [falling, single point]. Also, the AC50 under setting [1] was 2.59 µM [rising, partial curve]. As for `O=C(O)CN1C(=O)/C(=C\c2cccc(OCc3ccc(Cl)cc3)c2)SC1=S`, the AC50 under setting [1] is 29.1 µM [rising, single point]. Still for that read-out and setting: the value for `Cc1nn(C(C)C(=O)NCCCN(Cc2ccccc2)C(C)C)c(=O)c2c1sc1ccccc12` (stereo not drawn) was 6.51 µM [rising, single point].

Regarding `CN1C(c2ccc(F)cc2)=CS/C1=C(/C#N)c1nnc(N2CCOCC2)n1-c1ccccc1`, the cell number change came out at 12.2%. Moreover, the half-maximal activity concentration (AC50) under setting [1] is 1.84 µM [rising, single point]. Turning to `CCOC(=O)CCc1c(C)nc(SCC(=O)O)c(C#N)c1C`, the cell number change worked out at 4.01%. The AC50 under setting [1] was 0.146 µM [rising, full curve]. `Cn1c(O)c(N=NC(=O)CNC(=O)c2ccccc2)c2ccccc21`: the cell number change was -1.28%. Also, the AC50 under setting [2] is 0.206 µM [falling, full curve, poor fit]. The AC50 under setting [1] was 5.17 µM [rising, single point]. As for `CCN(CC)CCCN1C(=O)C(=O)/C(=C(/O)c2ccc(OC)c(Cl)c2)C1c1ccco1` (stereo not drawn), the cell number change is -6.73%. Also, under setting [1], the AC50 was 1.03 µM [falling, full curve]. `Cc1ccc(-n2nc3c(c2NC(=O)/C=C\c2ccc4c(c2)OCO4)CSC3)cc1`: the cell number change worked out at 1.87%.

Turning to `COc1ccc(NC(=O)C2CCN(c3nc(-c4ccc(OC)cc4)no3)CC2)cc1`, the cell number change turned out to be 31.4%. Also, under setting [2], the AC50 is 8.2 µM [rising, partial curve, poor fit]. In addition, under setting [1], the AC50 is 0.13 µM [rising, full curve, poor fit].

Regarding `O=C(CSc1nc2c(cnn2-c2ccc(F)cc2)c(=O)[nH]1)N1CCCc2ccccc21`, the cell number change was -27.4%. Under setting [1], the AC50 is 2.06 µM [falling, partial curve]. As to `O=C(COc1ccccc1F)Nc1ccc(-c2nc3ccccc3s2)cc1`, the cell number change was 17.3%. Moreover, under setting [1], the AC50 is 23.1 µM [rising, partial curve]. With `COc1ccc(C(=O)NCc2nnc(SCC(=O)N3CCCCCC3)o2)cc1OC`, the cell number change is -15.2%. Besides, the AC50 under setting [1] is 32.6 µM [rising, single point].

Turning to `O=C(OCC(=O)C12CC3CC(CC(C3)C1)C2)c1ccc(O)cc1O`, the cell number change was -65.7%. Also, the AC50 under setting [2] was 23.1 µM [falling, single point]. Under setting [1], the AC50 was 18.4 µM [falling, single point]. `NNc1nnc(-c2ccccc2)c(-c2ccccc2)n1`: the cell number change was found to be 0.799%. Further, under setting [1], the half-maximal activity concentration (AC50) is 0.0206 µM [rising, full curve, poor fit]. Regarding `CCN(CC)C(=O)c1cc2c(=O)c3cc(Cl)ccc3oc2nc1C`, the cell number change was found to be 5.33%. Take `CCCCC(=O)/C=C/n1c(=S)oc2ccccc21`: the cell number change is -26.4%. With `CC1CCN(CCCn2c(=S)[nH]c3c(sc4ccccc43)c2=O)CC1`, the cell number change is -2.18%. Moreover, under setting [2], the AC50 is 2.59 µM [falling, partial curve]. In addition, the AC50 under setting [1] was 5.17 µM [falling, single point].

Consider `Cc1ccc(NC(=S)NC(C)(C)C)c([N+](=O)[O-])c1`, for which the cell number change was -21.7%. The AC50 under setting [1] was 6.51 µM [falling, partial curve, poor fit]. Consider `COc1cccc(NC(=O)c2nn(C)c(C(=O)Nc3cccc(OC)c3)c2[N+](=O)[O-])c1`, for which the cell number change was -6.04%. `CCOC(=O)CCc1c(C)c2ccc(OC3CCCCC3=O)c(C)c2oc1=O` (stereo not drawn): the cell number change was -39.3%. In addition, the AC50 under setting [1] is 13 µM [falling, partial curve, poor fit].

`O=C(CSc1ccccc1)Nc1nnc(COc2ccc(Cl)cc2)s1`: under setting [1], the AC50 is 1.46 µM [falling, full curve]. As to `CSc1ncccc1C(=O)NCc1ccc(C)cc1`, the cell number change was -25.7%. The AC50 under setting [2] was 4.11 µM [falling, full curve, poor fit].

In the case of `CCOc1ccc(C2c3c(oc4ccccc4c3=O)C(=O)N2CCCN2CCOCC2)cc1OCC` (stereo not drawn), the cell number change was 11.7%. Under setting [1], the AC50 was 0.651 µM [falling, single point].
